# Tests used:
# [1] = tested on: Caspase 3 activity in human periodontal ligament (HPDL) cells; experiment: Apoptosis assay (Caspase 3 activity), HPDL; assay type: cell-based; details: Staurosporine 1 μM alone or with DEVD-Z-VAD-FMK 50 μM
# Description: (§1) Caspases are a family of proteases that mediate apoptosis. […] Cells were then washed with PBS and 50 μL of lysis buffer was added to each well. Cells were lysed using freeze-thaw cycles at -20° C. overnight. Cell lysates were then incubated for 15 minutes on ice and centrifuged at 15,000 g for 20 minutes. Then the amount of liberated pNA was detected, indicating the about of caspase activity.
# [2] = tested on: Caspase 3 activity in human gingival fibroblasts (HGF); experiment: Apoptosis assay (Caspase 3 activity), HGF; assay type: cell-based; details: Staurosporine 1 μM alone or with DEVD-Z-VAD-FMK 50 μM
# Description: as §1
smiles,measurement,setting,value
"CN[C@@H]1C[C@H]2O[C@@](C)([C@@H]1OC)n1c3ccccc3c3c4c(c5c6ccccc6n2c5c31)C(=O)NC4 [st, Staurosporine]","Caspase Activity in HPDL, apoptosis inducer / inhibitor controls",[1],153
same,"Caspase Activity in HGF, apoptosis inducer / inhibitor controls",[2],208
